Reference: PubChem BioAssay AID1259415 (National Center for Advancing Translational Sciences (NCATS), 2018)
Values joined by “and” are separate entries in the source; they are usually repeats but may differ in a detail not shown here. Equal values may be shown once. Among all 410,000 compounds or so, about 18,000 (4.4%) were called active. Inconclusive means that the source gave no clear call. Such entries were picked first, then a sample of the others. Cut-off read from the data, not from the text of the source: active = activity change below about -60%; inconclusive = no clear call, values can overlap the other calls; inactive = above about -39%.

experiment: qHTS Assay for inhibitors of the human cytomegalovirus (HCMV); conditions: HFF cells, HCMV-luciferase reporter, 72 h; at 57.5 µM; stronger effect = lower value
Summary of the method: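 Luciferase read-out from HCMV-luciferase-infected HFFs (MOI 1 PFU/cell) 72 h post infection at 37C; compounds added after 16 h cell attachment; activity normalized between buffer-only basal and Salinomycin (10uM) inhibitor controls.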
% is set by controls: 0 for no effect and ±100 for the full control effect.

SMILES	activity change, negative = inhibition
O=C(CSc1nnc(Cc2cccs2)n1-c1ccc(Cl)cc1)NCc1ccc2c(c1)OCO2	inactive: 29.6%
NC(=O)C12NC(Cc3ccccc31)c1ccccc12 (stereo not drawn)	inactive: 23.8%
Cc1ccc(-c2c[n+](Cc3ccc(Cl)cc3)c3n2CCC3)cc1	active: -79.1%
COc1ccccc1CNS(=O)(=O)c1ccc(S(=O)(=O)NC2CC2)cc1	inconclusive: -50%
CCCn1nc(C(=O)OCC(=O)c2c(N)n(C)c(=O)n(C)c2=O)c2ccccc2c1=O	inactive: -11%
Cc1cccnc1CN1CCN(C(=O)c2cc(COc3ccc4ncccc4c3)on2)CC1	active: -82.9%
O=C(Nc1nccs1)NC(C(F)(F)F)C(F)(F)F	inactive: 18.8%
Nc1nc2c(Cl)ccc(Cl)c2s1	inconclusive: -45.1%
COc1ccccc1CCNC(=O)CCc1c(C)c2cc3c(C)coc3c(C)c2oc1=O	inconclusive: -41.8%
CN(C)c1ccc(NC(=O)c2cccc(N3C(=O)C4C5C=CC(C5)C4C3=O)c2)cc1 (stereo not drawn)	inconclusive: -44.1%
NS(=O)(=O)c1ccc(S(=O)(=O)N2CCCC(c3ccccc3)C2)cc1 (stereo not drawn)	inactive: -21.3%
COc1ccc(S(=O)(=O)N(CC(=O)NCc2ccccc2OC)c2ccc(C)cc2)cc1	active: -67.6%
CC(C)(C)NC[C@H](O)COc1nsnc1N1CCOCC1	inactive: -12.3% and inactive: -10.7% and inactive: 46.4%
Cc1[nH]c2ccc(-c3n[nH]c(=S)n3C)cc2c1C	inconclusive: -53.6%
O=C(Nc1cccc(F)c1)C1CCCN(C(=O)c2ccc(Cl)cc2)C1 (stereo not drawn)	inconclusive: -43.7%
Cc1sc2nc(SCC(=O)N(C)c3ccccc3)n(C)c(=O)c2c1C	inconclusive: -41.2%
COC(=O)Cc1ccc(N(Cc2ccccc2F)S(=O)(=O)c2ccc(Br)cc2)cc1	inconclusive: -58.8%
O=C(Nc1ccccc1C(F)(F)F)c1ccc2nccnc2c1	inconclusive: -52.8%
CCNc1nc(SCCOc2ccccc2)nc(N(C)C)n1	inconclusive: -44.1%
Cc1ccc([N+](=O)[O-])cc1NC(=O)c1cccs1	inconclusive: -46.3%
CC1=Nc2ccccc2N=C(NC(=O)c2ccccc2)C1c1ccccc1 (stereo not drawn)	inactive: -16.7%

SMILES	activity change, negative = inhibition
O=C(COC(=O)c1cc(Br)ccc1O)Nc1ccc2c(c1)OCO2	inconclusive: 0%
Cc1cccc(N2CCN(S(=O)(=O)c3ccc4c(c3)CCCN4C(=O)C3CCC3)CC2)c1C	inconclusive: 0%
O=C(Nc1nc(-c2ccccn2)cs1)Nc1ccc(F)cc1F	inconclusive: -41.1%
COc1ccc(OCCNC(=S)Nc2cccc3ccccc23)cc1	active: -83.8%
O=C(NCC1CCCO1)c1onc(CSc2ccc(Cl)cc2)c1C(=O)O (stereo not drawn)	inconclusive: -49.7%
CN1/C(=C\C=Nc2cc(S(=O)(=O)N3CCOCC3)ccc2N2CCOCC2)C(C)(C)c2ccccc21	inconclusive: -56.2%
Cc1ccc(NCc2cccn2-c2nnc(N3CCC(C(=O)NCc4ccc(OC(C)C)cc4)CC3)s2)cc1	active: -80.1%
Cc1[nH]n(-c2ccccc2)c(=O)c1C(C[N+](=O)[O-])c1ccc(Cl)cc1 (stereo not drawn)	inconclusive: -47.2%
O=C(Nc1cc(Cl)ccn1)C1CCN(S(=O)(=O)c2cccs2)CC1	active: -73.2%
CCC(COC(=O)c1ccccc1)Oc1cc(NCc2ccccc2)c2ncn(C(C)C)c2c1 (stereo not drawn)	inconclusive: -42.6%
Cc1ccc(C2C=C(c3ccc4c(c3)OCO4)Nc3ncnn32)cc1 (stereo not drawn)	inactive: -7.59%
COc1cc(/C=C(\C#N)C(=O)Nc2ccc3c(c2)OCCO3)ccc1O	inconclusive: -40.7%
O=c1[nH]c(O)c(N=Nc2ccc(SC(F)F)cc2)c(=O)[nH]1	inconclusive: -42.7%
Cc1noc2ncnc(Oc3ccc(Cl)cc3Cl)c12	inconclusive: -58.5%
CC(C)c1ccc(/C=N/n2c(COc3ccccc3)n[nH]c2=S)cc1	inactive: 26.5%
CN(C)CC/C=C1\c2ccccc2Sc2cc(F)c(Cl)cc21	active: -65.2%
O=C1CN=C(c2ccccc2)c2ccccc2N1Cc1ccc(C(F)(F)F)cc1	inconclusive: -59.5%
O=C(Nc1ccc(F)cc1)C(Cc1ccccc1)n1cccc1 (stereo not drawn)	inconclusive: -46.1%
CCCCCCCn1c(=O)c(C(=O)Nc2cnccn2)c(O)c2ccccc21	active: -61.9%
COC(=O)C1=C(C)NC(=O)CC1c1ccccc1 (stereo not drawn)	inactive: -0.248%
CCOCCOC(=O)c1ccc(NC(=O)c2cc3ccccc3o2)cc1	inactive: 49%

Reprinted from above, 2 compounds:
SMILES	activity change, negative = inhibition
COc1cc(/C=C(\C#N)C(=O)Nc2ccc3c(c2)OCCO3)ccc1O	inconclusive: -40.7%
O=c1[nH]c(O)c(N=Nc2ccc(SC(F)F)cc2)c(=O)[nH]1	inconclusive: -42.7%
